# From patent publication US12514851B2, “Use of 2,3,5-substituted thiophene compound for preventing, ameliorating, or treating ovarian cancer” (PHAROS IBIO CO., LTD, priority 2020, dated 2026)
# Columns and labels:
# Test in all cases: Inhibitory activity against ovarian cancer cell lines, agents alone (Celltiter glo cell viability)
# Type in all cases: cell-based
# [1] = tested on: SK-OV-3 ovarian cancer cell line; settings: SK-OV3
# [2] = tested on: CAOV3 ovarian cancer cell line
# [3] = tested on: SW626 ovarian cancer cell line
# [4] = tested on: OVCAR3 ovarian cancer cell line
Structure (SMILES),integer ratio of IC50 relative to IC50 value (1×) of PHI-101 [1],integer ratio of IC50 relative to IC50 value (1×) of PHI-101 [2],integer ratio of IC50 relative to IC50 value (1×) of PHI-101 [3],integer ratio of IC50 relative to IC50 value (1×) of PHI-101 [4]
"O=C(c1cc(Cc2n[nH]c(=O)c3ccccc23)ccc1F)N1CCN(C(=O)C2CC2)CC1 [Olaparib, olaparib]",29,56,40,34
"NC(=O)Nc1cc(C#Cc2cccc(F)c2)sc1C(=O)N[C@H]1CCCNC1 [PHI-101, (S)-5-((3-fluorophenyl)ethynyl)-N-(piperidin-3-yl)-3-ureido thiophene-2-carboxamide]",1,1,1,1
